# Assay results taken from the supplement of paper PMC11348887.
# Structures can show the parent of a compound that is named as a salt. This is one part of the list. Most entries show no effect beyond the scatter of the controls.
# System: hPSC-derived cortical neurons (WA09)
# Test: total neurite length per nucleus (MAP2) z-score; higher = more neurite growth
# Details: 5 µM; treatment: days 7-14 after plating, readout day 21
row,SMILES,total neurite length per nucleus (z-score)
1,CC(=O)Oc1cc2c(s1)CCN(C(C(=O)C1CC1)c1ccccc1F)C2 (centres undefined) [Prasugrel Hydrochloride],-0.334
2,C[N+]1(C)CCC(=C(c2ccccc2)c2ccccc2)CC1 [Diphemanil Methylsulfate],0.00267
3,FC(F)(F)C(Cl)Br (centres undefined) [Halothane],0.681
4,CC(C)(CCCCCC(O)CCCCCC(C)(C)C(=O)O)C(=O)O,1.12
5,COC(=O)Nc1nc2cc(C(=O)c3ccc(F)cc3)ccc2[nH]1 [Flubendazole],-1.15
6,CC1CCc2cc(F)cc3c(=O)c(C(=O)O)cn1c23 (centres undefined) [Flumequine],0.133
7,COc1ccc(C[C@@H]2c3cc(OC)c(OC)cc3CC[N@+]2(C)CCC(=O)OCCCCCOC(=O)CC[N@@+]2(C)CCc3cc(OC)c(OC)cc3[C@H]2Cc2ccc(OC)c(OC)c2)cc1OC [Cisatracurium Besylate],0.653
8,C=CC(C)(C)c1cc(/C=C/C(=O)c2ccc(O)cc2)c(OC)cc1O [Licochalcone A],1.5
9,CN1[C@@H]2CC[C@H]1C[C@@H](OC(c1ccccc1)c1ccccc1)C2 [Benztropine mesylate],-1.52
10,CNC(=O)c1cc(Oc2ccc(NC(=O)Nc3ccc(Cl)c(C(F)(F)F)c3)cc2)ccn1 [Sorafenib Tosylate],-0.478
11,CC1=C(C(=O)Nc2cc3cn[nH]c3cc2F)C(c2ccc(C(F)(F)F)cc2)CC(=O)N1 (centres undefined),0.0949
12,NC(=S)N/N=C/c1ncccc1N [Triapine],0.292
13,O=C(OCC(O)CO)c1ccccc1Nc1ccnc2cc(Cl)ccc12 (centres undefined) [Glafenine HCl],0.434
14,Brc1c(NC2=NCCN2)ccc2nccnc12 [Brimonidine Tartrate],0.11
15,Nc1nc(NC2CC2)cc(-c2cccc(Cl)c2Cl)n1,-0.0206
16,O=C1C(=O)N(Cc2ccc(Cl)c(Cl)c2)c2ccccc21 [Apoptosis Activator 2],1.3
17,Cn1cc(-c2ccncc2)c(-c2ccc(OCc3ccc4ccccc4n3)cc2)n1,0.871
18,O=C(CCCCCCC(=O)Nc1ccccc1)NO [Vorinostat (SAHA_ MK0683)],-2.89
19,O=S(=O)(N=Cc1c(O)ccc2ccccc12)c1cccs1,0.155

# 2 records picked at random from those above, as already listed:
row,SMILES,total neurite length per nucleus (z-score)
17,Cn1cc(-c2ccncc2)c(-c2ccc(OCc3ccc4ccccc4n3)cc2)n1,0.871
15,Nc1nc(NC2CC2)cc(-c2cccc(Cl)c2Cl)n1,-0.0206
